Drug screen on melanoma cell lines: apoptosis marker

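Human melanoma cells were exposed to two drugs together for 72 h in 1,536-well plates and read by automated microscopy after fixing and staining. Each value is the cleaved-PARP-positive fraction of nuclei relative to DMSO-treated wells, in %, so that 100 equals the control and higher values mean more apoptosis. Concentrations were fixed for each drug; these are the higher of two levels. The file gives one value for each pair and line, without errors, so small differences may be noise. Basal and induced levels differ widely between cell lines.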 An unselected part of the screen is shown. An entry leaves out what has no value listed here.

First drug in all entries: GW2580, 5000 nM, COc1ccc(COc2ccc(Cc3cnc(N)nc3N)cc2OC)cc1

* O=S(=O)(c1ccccc1)N(CC(F)(F)F)c1ccc(C(O)(C(F)(F)F)C(F)(F)F)cc1 at 7000 nM | WM115: 73.3; SK-MEL-28: 87.6; RPMI-7951: 67.4; COLO 800: 261; IPC-298: 104; WM1745: 134; WM3526: 54.0; RVH-421: 101; IST-MEL1: 63.4; UACC-257: 61.6; A2058: 146; SK-MEL-2: 19.8; SK-MEL-30: 76.3; COLO 792: 17.5; WM1716: 87.4; WM3619: 117; G-361: 132; LOX IMVI: 81.2; WM451Lu: 44.1; UACC-62: 85.1; MeWo: 193; LB2518-MEL: 41.3; MZ2-MEL: 103; SK-MEL-5: 248; A375: 85.5; COLO 829: 109; C32: 183; A101D: 89.7; MEL-HO: 48.2; 501mel: 303
* Oc1cc(-c2nc(-c3ccccc3)[nH]c2-c2ccncc2)ccc1Cl at 1000 nM | WM115: 100; SK-MEL-28: 297; RPMI-7951: 90.5; COLO 800: 46.0; IPC-298: 33.8; WM1745: 159; WM3526: 176; RVH-421: 57.4; IST-MEL1: 163; UACC-257: 32.2; A2058: 114; SK-MEL-2: 545; SK-MEL-30: 131; COLO 792: 147; WM1716: 263; WM3619: 115; G-361: 141; LOX IMVI: 57.4; WM451Lu: 159; UACC-62: 244; MeWo: 36.8; LB2518-MEL: 82.1; MZ2-MEL: 45.9; SK-MEL-5: 191; A375: 496; COLO 829: 142; C32: 104; A101D: 227; MEL-HO: 232; 501mel: 102
* C[C@]1(c2nc3c(C(N)=O)cccc3[nH]2)CCCN1 at 7000 nM | WM115: 41.8; SK-MEL-28: 51.7; RPMI-7951: 99.7; COLO 800: 98.8; IPC-298: 45.9; WM1745: 128; WM3526: 17.0; RVH-421: 179; IST-MEL1: 120; UACC-257: 36.7; A2058: 97.4; SK-MEL-2: 115; SK-MEL-30: 88.1; COLO 792: 128; WM1716: 8.0; WM3619: 113; G-361: 151; LOX IMVI: 32.3; WM451Lu: 72.1; UACC-62: 191; MeWo: 49.4; LB2518-MEL: 76.9; MZ2-MEL: 47.3; SK-MEL-5: 44.1; A375: 70.4; COLO 829: 55.6; C32: 106; A101D: 85.8; MEL-HO: 148; 501mel: 126
* Nc1nc(F)nc2c1ncn2[C@@H]1O[C@H](CO)[C@@H](O)[C@@H]1O at 1000 nM | WM115: 45.5; SK-MEL-28: 1940; RPMI-7951: 252; COLO 800: 72.6; IPC-298: 67.5; WM3526: 2070; RVH-421: 98.3; IST-MEL1: 161; UACC-257: 581; A2058: 207; SK-MEL-2: 1540; SK-MEL-30: 764; COLO 792: 88.7; WM1716: 54.6; WM3619: 140; G-361: 178; LOX IMVI: 113; WM451Lu: 88.3; UACC-62: 96.2; MeWo: 112; LB2518-MEL: 87.0; MZ2-MEL: 133; SK-MEL-5: 366; A375: 202; COLO 829: 123; C32: 81.5; A101D: 71.5; MEL-HO: 101; 501mel: 3120
* C[C@@H](Oc1cc(-c2cnn(C3CCNCC3)c2)cnc1N)c1c(Cl)ccc(F)c1Cl at 1000 nM | WM115: 106; SK-MEL-28: 48.2; RPMI-7951: 132; COLO 800: 130; IPC-298: 106; WM3526: 164; RVH-421: 63.7; IST-MEL1: 166; UACC-257: 162; A2058: 132; SK-MEL-2: 117; SK-MEL-30: 108; COLO 792: 13.1; WM1716: 42.3; WM3619: 90.1; G-361: 166; LOX IMVI: 63.5; WM451Lu: 77.8; UACC-62: 74.6; MeWo: 244; LB2518-MEL: 79.3; MZ2-MEL: 54.2; SK-MEL-5: 343; A375: 76.5; COLO 829: 75.2; C32: 94.2; A101D: 107; MEL-HO: 138; 501mel: 103
* C=CCn1c(=O)c2cnc(Nc3ccc(N4CCN(C)CC4)cc3)nc2n1-c1cccc(C(C)(C)O)n1 at 100 nM | WM115: 63.6; SK-MEL-28: 256; RPMI-7951: 60.6; COLO 800: 43.2; IPC-298: 225; WM1745: 154; WM3526: 119; RVH-421: 83.1; IST-MEL1: 108; UACC-257: 20.8; A2058: 124; SK-MEL-2: 122; SK-MEL-30: 118; COLO 792: 54.8; WM1716: 60.7; WM3619: 296; G-361: 155; LOX IMVI: 93.4; WM451Lu: 128; UACC-62: 260; MeWo: 113; LB2518-MEL: 90.2; MZ2-MEL: 103; SK-MEL-5: 255; A375: 474; COLO 829: 64.4; C32: 103; A101D: 110; MEL-HO: 25.4; 501mel: 241
* Cc1cc(Nc2cc(N3CCN(C)CC3)nc(/C=C/c3ccccc3)n2)n[nH]1 at 200 nM | WM115: 58.7; SK-MEL-28: 350; RPMI-7951: 148; COLO 800: 115; IPC-298: 91.3; WM3526: 169; RVH-421: 63.8; IST-MEL1: 120; UACC-257: 13.2; A2058: 126; SK-MEL-2: 64.0; SK-MEL-30: 71.4; COLO 792: 81.4; WM1716: 88.8; WM3619: 139; G-361: 238; LOX IMVI: 118; WM451Lu: 237; UACC-62: 252; MeWo: 138; LB2518-MEL: 83.7; MZ2-MEL: 119; SK-MEL-5: 57.4; A375: 210; COLO 829: 95.5; C32: 181; A101D: 808; MEL-HO: 99.1; 501mel: 260

Data from the primary screen of doi:10.1371/journal.pone.0140310, rounded.